Data reported in PubChem BioAssay AID493014 (National Center for Advancing Translational Sciences (NCATS), 2011).
About 170 (0.05%) of roughly 340,000 compounds were called active. The shares of active, inactive and inconclusive entries below differ from those in the screen. Calls follow the shape of the dose curve; as a rule, active = well fitted inhibition curve with a large enough effect in the signal ratio, with a control signal flat (not every such curve was filed as active); inconclusive = small, poorly fitted or top-dose-only effect, or effect the other way, or a change in a side signal; inactive = flat fitted curve, though single readings scatter; the % refers to the signal ratio. Potencies of inconclusive entries are doubtful fits and often do not repeat.
Potency is read from the fitted curve at half-maximal effect.

Test: qHTS Assay to Find Inhibitors of Chronic Active B-Cell Receptor Signaling;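 as to activity change, negative = inhibition: plate controls were basal doxycycline-induced cells for no effect and cells given 10 µM MG132 for full effect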
Settings: ABC-DLBCL IkBa-CBG/CBR reporter, luminescence ratio (green luciferase fused to IkBa over red control in TMD8 lymphoma cells), 4 h; activity change, negative = inhibition: at 46.1 µM (top of the series)
Method in brief: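 Doxycycline induced both beetle luciferases in TMD8 lymphoma cells; IKK-driven degradation limits the IkappaBalpha-fused green signal, while red luminescence normalises for cell number and nonspecific effects. Compounds tested up to 46 uM, 4 hrs.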
With `COC(=O)N/N=C/c1cn(Cc2ccc(F)cc2)c2ccccc12` the “activity change, negative = inhibition” value was inactive: -12.4%.
In the case of `COC(=O)Cc1csc(/N=C/c2c(O)n(-c3cccc(C(F)(F)F)c3)c(=O)c3ccccc23)n1`, the activity change, negative = inhibition is reported as inconclusive: 5.86%.
With `CCCSc1nc2c(c(=O)n1CC)SC(C)C2` (configuration not stated) the activity change, negative = inhibition was inconclusive: 8.18%.
For `Cc1[nH]c2ccc(OC(=O)N3CCOCC3)cc2c1C(=O)OC(C)C`, the activity change, negative = inhibition was inconclusive: -7.78%.
In the case of `COc1ccc(CNc2nc3ccccc3n2C)c(O)c1`, the activity change, negative = inhibition is reported as inconclusive: 7.59%.
With `COc1cc(S(=O)(=O)NCCc2c(C)[nH]c3ccc(C)cc23)ccc1Br` the activity change, negative = inhibition was inconclusive: 6.03%.
With `O=C(Nc1nc2ccccc2n1CCN1CCCCC1)c1ccc(Cl)cc1` the Potency was inconclusive: 11.6 µM [falling, partial curve, poor fit].
With `CC(C)(C)OC(=O)NCCCC[C@H](NC(=O)c1nc[nH]c1C(=O)NCC(=O)OCc1ccccc1)C(=O)OC(C)(C)C` the “activity change, negative = inhibition” value was inactive: 6.64%.
In the case of `Cc1onc(-c2ccccc2Cl)c1C(=O)N/N=C(\N)COc1ccc(Cl)cc1`, the Potency is reported as inconclusive: 23.1 µM [falling, partial curve, poor fit].
With `Cc1ccc(OC(C)C(=O)Nc2ccncc2)cc1C` (configuration not stated) the “activity change, negative = inhibition” value was inactive: -7.11%.
With `O=C(Nc1cc(-c2ccccc2)nn1C1CCCCC1)c1ccc(Cl)cc1` the “activity change, negative = inhibition” value was inactive: 4.38%.
With `Cn1[nH]c(=O)c2ccccc2c1=O` the “activity change, negative = inhibition” value was inactive: -15.4%.
With `CS(=O)(=O)c1ccc2c(c1)sc1nc(=O)c(/C=C3/C=CC(=O)C(O)=C3)c(N)n12` the Potency was inconclusive: 15.8 µM [falling, partial curve].
With `COc1ccc(-c2nn(-c3ccccc3)cc2/C=N/n2cnnc2)cc1OC` the activity change, negative = inhibition was inconclusive: -2.87%.
With `O=C(Cc1ccccc1[N+](=O)[O-])Nc1cccc(S(=O)(=O)NC2=NCCCCC2)c1` the “activity change, negative = inhibition” value was inactive: -2.33%.
In the case of `C/C(=N\Nc1ccc([N+](=O)[O-])cc1)c1ccc(-n2nncc2C)cc1`, the activity change, negative = inhibition is reported as inconclusive: 6.82%.
In the case of `COc1ccc(Nc2nc(-c3ccccc3)nc3ccccc23)cc1S(=O)(=O)N1CCOCC1`, the activity change, negative = inhibition is reported as inconclusive: -1.65%.
With `COC(=O)COc1cccc2c(=O)n(CC(=O)N3CCC(C)CC3)ccc12` the “activity change, negative = inhibition” value was inactive: 9.9%.
With `c1ccc(-c2noc(-c3cccc4ccccc34)n2)nc1` the Potency was inconclusive: 20.6 µM [falling, partial curve].
For `CCOc1ccccc1-n1nnnc1SCC(=O)Nc1cc2oc3ccccc3c2cc1OC`, the “activity change, negative = inhibition” value was inactive: 7.68%.
With `COc1ccc(NS(=O)(=O)c2ccc(N3CCOCC3)c(N)c2)cc1` the “activity change, negative = inhibition” value was inactive: -12.9%.
For `Fc1cccc(Nc2nc(N3CCOCC3)nc(N3CCOCC3)n2)c1`, the Potency was inconclusive: 14.1 µM [falling, partial curve].
For `COc1cc(N/N=C(\C)c2ccc(N)cc2)nc(-c2ccccc2)n1`, the activity change, negative = inhibition was inconclusive: -8.54%.
For `O=C1CC(O)(C(F)(F)F)Oc2c1ccc1ccccc21` (configuration not stated), the “activity change, negative = inhibition” value was inactive: 2.61%.
With `COc1ccc(N2C(=O)/C(=C/c3ccc([N+](=O)[O-])cc3)N=C2C)c(OC)c1` the “activity change, negative = inhibition” value was inactive: -4.31%.
With `O=C(O)c1cccc(S(=O)(=O)Nc2cccc(S(=O)(=O)N3CCCC3)c2)c1` the activity change, negative = inhibition was inconclusive: -0.0641%.
With `C=CCc1c(C)[nH]c2ccc(C)cc2c1=O` the activity change, negative = inhibition was inconclusive: 11.7%.
In the case of `CCCn1nc(NC(=O)C2CCCO2)c2cc3cc(C)ccc3nc21` (configuration not stated), the activity change, negative = inhibition is reported as inconclusive: 22.2%.
With `O=C(N/N=C/c1ccc(N2CCOCC2)o1)c1ccccc1[N+](=O)[O-]` the Potency was inconclusive: 18.4 µM [falling, partial curve, poor fit].
In the case of `Cc1ccc2[nH]c(=O)c(CN(Cc3cccnc3)Cc3nnnn3CCN3CCOCC3)cc2c1`, the activity change, negative = inhibition is reported as inconclusive: 20.6%.
With `COc1ccc(C2=CC(c3cccc(OC)c3)n3nnnc3N2)cc1` (configuration not stated) the activity change, negative = inhibition was inconclusive: -22.8%.
For `COc1ccc(NC(=O)CN(C)C(=O)c2ccc3[nH]c4c(c3c2)CC(C)CC4)cc1` (configuration not stated), the activity change, negative = inhibition was inconclusive: 1.04%.
In the case of `CCC1Oc2ccc(C)cc2N(CC(=O)N(Cc2ccc(C)o2)C2CC(C)(C)NC(C)(C)C2)C1=O` (configuration not stated), the activity change, negative = inhibition is reported as inconclusive: -14.5%.
With `CC(=O)C1=C(O)C(=O)N(c2cc(C(C)(C)C)on2)C1c1ccc(C(C)C)cc1` (configuration not stated) the “activity change, negative = inhibition” value was inactive: -0.561%.
For `CC1CC(C)CN(C(=S)NC2CCCCC2)C1` (configuration not stated), the activity change, negative = inhibition was inconclusive: 0.355%.
In the case of `CCOc1nc2c(c(-c3cccs3)c1C#N)Cc1ccccc1-2`, the “activity change, negative = inhibition” value is reported as inactive: 0.492%.
In the case of `CCOC(=O)/C=c1\s/c(=C(\C#N)C(N)=O)n(-c2ccccc2)c1=O`, the activity change, negative = inhibition is reported as inconclusive: 11.6%.
With `Cc1ccc2cc3c(NC(=O)c4ccco4)nn(C)c3nc2c1` the “activity change, negative = inhibition” value was inactive: 4.7%.
In the case of `Cc1cc(C)c(CSc2ncc(-c3ccc([N+](=O)[O-])cc3)[nH]2)c(C)c1`, the activity change, negative = inhibition is reported as inconclusive: -21.6%.
For `O=C(Nc1nnc(-c2ccccn2)o1)c1cccc(Cl)c1`, the Potency was inconclusive: 35.5 µM [rising, single point].
In the case of `Cc1cccc(NC(=O)COC(=O)Cc2c[nH]c3ccccc23)c1C`, the Potency is reported as inconclusive: 20.6 µM [falling, single point].
With `CN(C)c1ccc(C(=S)Nc2ccccc2)cc1` the Potency was inconclusive: 16.4 µM [falling, partial curve, poor fit].
For `CCCC(=O)Nc1ccc(NC(=O)c2ccccc2Cl)nc1`, the Potency was inconclusive: 18.4 µM [falling, single point].
With `COC(=O)c1cccc(C(=O)N2CCC(CO)(CCc3ccccc3)CC2)c1` the “activity change, negative = inhibition” value was inactive: -1.08%.
With `CC1CC(C)CN(S(=O)(=O)c2ccc(NC(=O)CN3C(=O)NC(C)(c4ccccc4)C3=O)cc2)C1` (configuration not stated) the “activity change, negative = inhibition” value was inactive: -4.84%.
In the case of `CCOC(=O)c1snc(C(=O)NC2CCCCC2)c1N`, the Potency is reported as inconclusive: 6.51 µM [falling, single point].
With `CC(C)c1ccc(NC(=O)C2CCCN(S(=O)(=O)c3cnc[nH]3)C2)cc1` (configuration not stated) the Potency was inconclusive: 29.1 µM [falling, single point].
For `COc1ccccc1NC(=O)CSc1nnnn1Cc1ccccc1`, the “activity change, negative = inhibition” value was inactive: -9.05%.
With `CCOC(=O)Nc1cccc2ccccc12` the Potency was inconclusive: 20 µM [falling, single point].
With `C=CCn1cc(C(=O)OC)c(=O)c2cc(S(=O)(=O)N(CC)CC)ccc21` the Potency was inconclusive: 1.03 µM [rising, full curve, poor fit].
In the case of `Cc1ccc(C)c(NC(=O)Cc2nc(CCl)cs2)c1`, the “activity change, negative = inhibition” value is reported as inactive: -2.77%.
In the case of `Cc1nc(-c2ccccc2)sc1C(=O)/C=C/c1ccc(Cl)cc1`, the activity change, negative = inhibition is reported as inconclusive: 29%.
For `CCN(CC)C(=O)/C(=C\c1ccncc1)NC(=O)c1ccccc1`, the Potency was inconclusive: 14.1 µM [falling, partial curve, poor fit].
In the case of `Cc1ccc(-c2nn(C)c(=O)c3ccccc23)cc1CNS(C)(=O)=O`, the Potency is reported as inconclusive: 25.9 µM [falling, single point].
With `CC(=O)C(Sc1nc(N2CCOCC2)nc(N2CCOCC2)n1)C(=O)Nc1ccccc1` (configuration not stated) the Potency was inconclusive: 23.1 µM [falling, partial curve, poor fit].
In the case of `COc1ccccc1NC(=O)COC(=O)c1ccccn1`, the activity change, negative = inhibition is reported as inconclusive: -27.9%.
For `COc1ccc(C(=O)Cn2cnc3ccc(Cl)cc3c2=O)cc1F`, the activity change, negative = inhibition was inconclusive: 1.14%.
In the case of `Cc1ccc(OCC(=O)NNC(=S)NC(=O)C2CC2)c(C)c1`, the activity change, negative = inhibition is reported as inconclusive: 10.4%.
With `Cc1ccc(-c2nnc(N3CCOCC3)c3ccccc23)cc1S(=O)(=O)N(C)C` the “activity change, negative = inhibition” value was inactive: -0.878%.
With `O/C(=C\Sc1nnc(Cc2ccccc2)o1)c1ccc(F)cc1` the activity change, negative = inhibition was inconclusive: -24.9%.
In the case of `CCOC(=O)C1CCCN(C(=O)c2ccc3c(c2)N(C)C(=O)/C(=C/c2ccccc2Cl)S3)C1` (configuration not stated), the activity change, negative = inhibition is reported as inconclusive: 2.91%.
With `COc1ccc(OC)c(-n2cnc3cc(C(=O)NCCCN4CCOCC4)ccc32)c1` the activity change, negative = inhibition was inconclusive: -14.6%.
In the case of `CCOC(=O)C1(Cc2cccc(OC)c2)CCN(C/C=C/c2ccc(OC)cc2)CC1`, the “activity change, negative = inhibition” value is reported as inactive: 1.79%.
With `COc1cc(C(=O)OCC(=O)NC(=O)c2cccn2C)ccc1OC(F)F` the activity change, negative = inhibition was inconclusive: 1.22%.
With `CCOC(=O)N1CCC(N2Cc3cccc(C(=O)Nc4ccccc4OC)c3C2=O)CC1` the activity change, negative = inhibition was inconclusive: -10.9%.
For `Cc1cc(N2C3CCC2CC(O)(c2ccc(F)cc2)C3)nc(-c2ccccc2)n1` (configuration not stated), the activity change, negative = inhibition was inconclusive: 2.6%.
For `CC1CC(NC(=O)/C=C/C(=O)O)CC(C)(C)C1` (configuration not stated), the activity change, negative = inhibition was inconclusive: 9.71%.
For `CCc1ccc(OCCCCN(C)Cc2ccccc2)cc1`, the “activity change, negative = inhibition” value was inactive: 6.49%.
For `O=C(c1cccc([N+](=O)[O-])c1)N1CCN(c2ncccn2)CC1`, the “activity change, negative = inhibition” value was inactive: 2.8%.
With `COc1ccccc1NC(=O)COc1ccccc1C(=O)Nc1ccccc1` the activity change, negative = inhibition was inconclusive: -10.9%.
In the case of `Cc1c(C(=O)N2CCOCC2)c(S(=O)(=O)Nc2ccc(F)cc2)c(C)n1C`, the activity change, negative = inhibition is reported as inconclusive: -3.53%.
In the case of `C/C(=N/NC(=O)CNS(=O)(=O)c1ccc(C)cc1)c1cccc([N+](=O)[O-])c1`, the activity change, negative = inhibition is reported as inconclusive: -2.06%.
For `COc1ccc(NC(=O)c2ccccc2F)cc1Cl`, the Potency was inconclusive: 23.1 µM [falling, partial curve].
With `C[C@H](CO)N1C[C@H](C)[C@@H](CN(C)Cc2ccc(Cl)c(Cl)c2)Oc2ccc(NC(=O)Cn3cnnn3)cc2C1=O` the “activity change, negative = inhibition” value was inactive: -3.16%.
In the case of `O=C(CCCN1C(=O)/C(=C\c2ccco2)SC1=S)Nc1cccc2ccccc12`, the activity change, negative = inhibition is reported as inconclusive: -15.5%.
For `COc1ccccc1CCn1cc(C#N)c(=O)[nH]c1=O`, the activity change, negative = inhibition was inconclusive: 9.26%.
For `CN(C)CCN(Cc1cccs1)c1ccccn1`, the “activity change, negative = inhibition” value was inactive: -11.7%.
In the case of `Oc1ccccc1C=NCCN=Cc1ccccc1O`, the “activity change, negative = inhibition” value is reported as inactive: 1.01%.
For `CCCCCCc1cc2cc(C(=O)Nc3cccc(OC)c3)c(=O)oc2cc1O`, the Potency was inconclusive: 1.64 µM [rising, partial curve, poor fit].
In the case of `O=C(COc1ccccc1Cl)NC(=S)N1CCc2ccccc21`, the activity change, negative = inhibition is reported as inconclusive: 1.83%.
For `CCCCNc1c(-c2cccc(-c3ccc(OC)cc3)c2)nc2ccc(C)cn12`, the activity change, negative = inhibition was inconclusive: -18.5%.
In the case of `O=C(NC(=S)NNC(=O)c1ccc(Cl)cc1Cl)c1cccnc1`, the Potency is reported as inconclusive: 20.6 µM [falling, single point].
